Patent publication US20210261642A1, “SOLUBILITY OF GLP-1 PEPTIDE” (Novo Nordisk A/S, priority 2017, published 2021)
The source gives many values for each of these; only a part stands here.

Experiment: Assay (I): Determination of Solubility (96-well plate, pH 3.0-11.0, organic solvent 0-70% w/w, UV absorption at 280 nm)
Format: physicochemical
Settings: Method 1
Description: Assay (I): Determination of Solubility
96-Well Plate Preparation
96-well plates containing target peptide in a solid form were prepared in one of two ways:
Method 1 (evaporation): Addition of 100 μl stock solution of said peptide at a concentration of 4-6 mg/ml to each well of a 96-well half area plate (150 μl well size). Subsequently the solvent was evaporated by applying a vacuum until the solvent was completely removed.
Method 2 (precipitation): Addition of a certain volume of a stock solution of said peptide containing to each well of a 96-well half area plate followed by the addition of a certain volume of concentrated phosphoric acid to obtain a pH of 4.6 followed by addition of a certain volume of ethanol resulting in a final ethanol concentration of 20% v/v. Subsequently the plate was stored at 4° C. for 1 h and then centrifuged at 4,000 rpm for 20 min. Finally the supernatant was removed. The concentration of the stock solution was chosen in a way that the final amount of peptide after supernatant removal was >0.4 mg per well.
In both cases the stock solution was prepared by adding de-ionized water to a certain amount of powder of said peptide followed by a stepwise addition of small amounts of a concentrated sodium hydroxide solution until said peptide was completely in solution.
To determine solubility of a target peptide at different pH and organic solvent concentrations, two different buffer systems were used in independent experiments to cover the whole range from pH 3.0 to pH 11.0. Buffer system 1 covers pH 3.0-7.5 and buffer system 2 covers pH 7.5-11.0. For each buffer system 96 different solvent compositions were premixed in the following way: • 1. A low pH buffer (adjusted to either pH 3.0 or pH 7.5) and a high pH buffer (adjusted to either pH 7.5 or pH 11.0) were mixed at 8 different ratios to obtain values between pH 3.0 and pH 7.5 or pH 7.5 and pH 11.0, respectively. The total volume after mixing was 300 μl. • 2. 12 different amounts of organic solvent were then added to these buffers to obtain organic solvent (e.g. ethanol) concentrations between 0 and 70% w/w. • 3. Water was then added to obtain a total weight of 1.0 g of solvent in each well.
After preparing the 96 different solvent systems, 100 μl of each system was transferred to the 96-well plate containing the solid form of the target peptide (prepared as described in the section “96-well plate preparation”). The plate was then stored at a given temperature (between 5° C. and 70° C.) for a given time on a rotating shaker set to 400 rpm. At regular time intervals the plate was centrifuged (4,000 rpm for 10 min) and a 10 μl sample was taken from each well. The samples were then analysed by UV absorption at 280 nm for peptide quantification. Peptide concentration results are given as UV absorption at 280 nm of the sample subtracted UV absorption at 280 nm of a well comprising 10 μl water.
The buffers used were as follows: • Buffer system 1 (for the pH range from pH 3.0-7.5)
• Buffer system 2 (for the pH ranae from pH 7.5-11.0)
Solubility of liraglutide was determined using Assay (I) described herein. Liraglutide was prepared using Method 1 (evaporation) or Method 2 (precipitation) as described in subsection “96-well plate preparation”.

[1] = MeCN 12.7% w/w, pH 10.0, 70° C.
[2] = MeCN 12.7% w/w, pH 10.5, 70° C.
[3] = MeCN 12.7% w/w, pH 11.0, 70° C.

Peptide concentration after 24 h (MeCN 12.7% w/w, pH 6.9, 5° C.): >4.0 mg/mL
Peptide concentration after 5 min (MeCN 12.7% w/w, pH 6.9, 70° C.): 3.2 mg/mL
Peptide concentration after 180 min (MeCN 12.7% w/w, pH 6.9, 70° C.): >4.0 mg/mL
Peptide concentration after 5 min (MeCN 12.7% w/w, pH 6.9, RT): 1.2 mg/mL
Peptide concentration after 180 min (MeCN 12.7% w/w, pH 6.9, RT): 2.6 mg/mL
Peptide concentration after 24 h (MeCN 12.7% w/w, pH 6.9, RT): >4.0 mg/mL
Peptide concentration after 5 min (MeCN 12.7% w/w, pH 7.5, 5° C.): 1.3 mg/mL
Peptide concentration after 180 min (MeCN 12.7% w/w, pH 7.5, 5° C.): 2.3 mg/mL
Peptide concentration after 24 h (MeCN 12.7% w/w, pH 7.5, 5° C.): >4.0 mg/mL
Peptide concentration after 5 min (MeCN 12.7% w/w, pH 7.5, 70° C.): 3.7 mg/mL
Peptide concentration after 180 min (MeCN 12.7% w/w, pH 7.5, 70° C.): >4.0 mg/mL
Peptide concentration after 5 min (MeCN 12.7% w/w, pH 7.5, RT): 1.4 mg/mL
Peptide concentration after 180 min (MeCN 12.7% w/w, pH 7.5, RT): 3.6 mg/mL
Peptide concentration after 24 h (MeCN 12.7% w/w, pH 7.5, RT): >4.0 mg/mL
Peptide concentration after 5 min (MeCN 12.7% w/w, pH 8.0, 70° C.): 3.6 mg/mL
Peptide concentration after 180 min (MeCN 12.7% w/w, pH 8.0, 70° C.): >4.0 mg/mL
Peptide concentration after 5 min (MeCN 12.7% w/w, pH 8.0, RT): 3.2 mg/mL
Peptide concentration after 180 min (MeCN 12.7% w/w, pH 8.0, RT): 3.8 mg/mL
Peptide concentration after 24 h (MeCN 12.7% w/w, pH 8.0, RT): >4.0 mg/mL
Peptide concentration after 5 min (MeCN 12.7% w/w, pH 8.5, 70° C.): 3.5 mg/mL
Peptide concentration after 180 min (MeCN 12.7% w/w, pH 8.5, 70° C.): >4.0 mg/mL
Peptide concentration after 5 min (MeCN 12.7% w/w, pH 8.5, RT): 0.9 mg/mL
Peptide concentration after 180 min (MeCN 12.7% w/w, pH 8.5, RT): 2.6 mg/mL
Peptide concentration after 24 h (MeCN 12.7% w/w, pH 8.5, RT): >4.0 mg/mL
Peptide concentration after 5 min (MeCN 12.7% w/w, pH 9.0, 70° C.): 3.5 mg/mL
Peptide concentration after 180 min (MeCN 12.7% w/w, pH 9.0, 70° C.): >4.0 mg/mL
Peptide concentration after 5 min (MeCN 12.7% w/w, pH 9.0, RT): 1.0 mg/mL
Peptide concentration after 180 min (MeCN 12.7% w/w, pH 9.0, RT): 2.6 mg/mL
Peptide concentration after 24 h (MeCN 12.7% w/w, pH 9.0, RT): >4.0 mg/mL
Peptide concentration after 5 min (MeCN 12.7% w/w, pH 9.5, 70° C.): >4.0 mg/mL
Peptide concentration after 180 min (MeCN 12.7% w/w, pH 9.5, 70° C.): >4.0 mg/mL
Peptide concentration after 5 min (MeCN 12.7% w/w, pH 9.5, RT): 1.1 mg/mL
Peptide concentration after 180 min (MeCN 12.7% w/w, pH 9.5, RT): 2.9 mg/mL
Peptide concentration after 24 h (MeCN 12.7% w/w, pH 9.5, RT): >4.0 mg/mL
Peptide concentration after 5 min [1]: >4.0 mg/mL
Peptide concentration after 180 min [1]: >4.0 mg/mL
Peptide concentration after 5 min (MeCN 12.7% w/w, pH 10.0, RT): 1.0 mg/mL
Peptide concentration after 180 min (MeCN 12.7% w/w, pH 10.0, RT): 3.3 mg/mL
Peptide concentration after 24 h (MeCN 12.7% w/w, pH 10.0, RT): >4.0 mg/mL
Peptide concentration after 5 min [2]: >4.0 mg/mL
Peptide concentration after 180 min [2]: >4.0 mg/mL
Peptide concentration after 5 min (MeCN 12.7% w/w, pH 10.5, RT): 1.2 mg/mL
Peptide concentration after 180 min (MeCN 12.7% w/w, pH 10.5, RT): 3.3 mg/mL
Peptide concentration after 24 h (MeCN 12.7% w/w, pH 10.5, RT): >4.0 mg/mL
Peptide concentration after 5 min [3]: 3.3 mg/mL
Peptide concentration after 180 min [3]: >4.0 mg/mL
Peptide concentration after 5 min (MeCN 12.7% w/w, pH 11.0, RT): 1.0 mg/mL
Peptide concentration after 180 min (MeCN 12.7% w/w, pH 11.0, RT): 2.9 mg/mL
Peptide concentration after 24 h (MeCN 12.7% w/w, pH 11.0, RT): >4.0 mg/mL
Peptide concentration after 5 min (MeCN 19.1% w/w, pH 3.0, 5° C.): 0.7 mg/mL
Structure (SMILES): CCCCCCCCCCCCCCCC(=O)N[C@@H](CCC(=O)NCCCC[C@H](NC(=O)[C@H](C)NC(=O)[C@H](C)NC(=O)[C@H](CCC(N)=O)NC(=O)CNC(=O)[C@H](CCC(=O)O)NC(=O)[C@H](CC(C)C)NC(=O)[C@H](Cc1ccc(O)cc1)NC(=O)[C@H](CO)NC(=O)[C@H](CO)NC(=O)[C@@H](NC(=O)[C@H](CC(=O)O)NC(=O)[C@H](CO)NC(=O)[C@@H](NC(=O)[C@H](Cc1ccccc1)NC(=O)[C@@H](NC(=O)CNC(=O)[C@H](CCC(=O)O)NC(=O)[C@H](C)NC(=O)[C@@H](N)Cc1cnc[nH]1)[C@@H](C)O)[C@@H](C)O)C(C)C)C(=O)N[C@@H](CCC(=O)O)C(=O)N[C@@H](Cc1ccccc1)C(=O)N[C@H](C(=O)N[C@@H](C)C(=O)N[C@@H](Cc1c[nH]c2ccccc12)C(=O)N[C@@H](CC(C)C)C(=O)N[C@H](C(=O)N[C@@H](CCCNC(=N)N)C(=O)NCC(=O)N[C@@H](CCCNC(=N)N)C(=O)NCC(=O)O)C(C)C)[C@@H](C)CC)C(=O)O [liraglutide, Arg34,Lys26-(N-epsilon-(gamma-L-glutamyl(N-alfa-hexadecanoyl)))-GLP-1(7-37)]
